Consider 14 sequences from publication PMC6565636, “Rif1 promotes association of G-quadruplex (G4) by its specific G4 binding and oligomerization activities”.

Series [1] has as its target T1, Rif1 full-length (His6-Rif1-FLAG3) (Schizosaccharomyces pombe (fission yeast)) (UniProt Q96UP3).
T1 sequence (looked up): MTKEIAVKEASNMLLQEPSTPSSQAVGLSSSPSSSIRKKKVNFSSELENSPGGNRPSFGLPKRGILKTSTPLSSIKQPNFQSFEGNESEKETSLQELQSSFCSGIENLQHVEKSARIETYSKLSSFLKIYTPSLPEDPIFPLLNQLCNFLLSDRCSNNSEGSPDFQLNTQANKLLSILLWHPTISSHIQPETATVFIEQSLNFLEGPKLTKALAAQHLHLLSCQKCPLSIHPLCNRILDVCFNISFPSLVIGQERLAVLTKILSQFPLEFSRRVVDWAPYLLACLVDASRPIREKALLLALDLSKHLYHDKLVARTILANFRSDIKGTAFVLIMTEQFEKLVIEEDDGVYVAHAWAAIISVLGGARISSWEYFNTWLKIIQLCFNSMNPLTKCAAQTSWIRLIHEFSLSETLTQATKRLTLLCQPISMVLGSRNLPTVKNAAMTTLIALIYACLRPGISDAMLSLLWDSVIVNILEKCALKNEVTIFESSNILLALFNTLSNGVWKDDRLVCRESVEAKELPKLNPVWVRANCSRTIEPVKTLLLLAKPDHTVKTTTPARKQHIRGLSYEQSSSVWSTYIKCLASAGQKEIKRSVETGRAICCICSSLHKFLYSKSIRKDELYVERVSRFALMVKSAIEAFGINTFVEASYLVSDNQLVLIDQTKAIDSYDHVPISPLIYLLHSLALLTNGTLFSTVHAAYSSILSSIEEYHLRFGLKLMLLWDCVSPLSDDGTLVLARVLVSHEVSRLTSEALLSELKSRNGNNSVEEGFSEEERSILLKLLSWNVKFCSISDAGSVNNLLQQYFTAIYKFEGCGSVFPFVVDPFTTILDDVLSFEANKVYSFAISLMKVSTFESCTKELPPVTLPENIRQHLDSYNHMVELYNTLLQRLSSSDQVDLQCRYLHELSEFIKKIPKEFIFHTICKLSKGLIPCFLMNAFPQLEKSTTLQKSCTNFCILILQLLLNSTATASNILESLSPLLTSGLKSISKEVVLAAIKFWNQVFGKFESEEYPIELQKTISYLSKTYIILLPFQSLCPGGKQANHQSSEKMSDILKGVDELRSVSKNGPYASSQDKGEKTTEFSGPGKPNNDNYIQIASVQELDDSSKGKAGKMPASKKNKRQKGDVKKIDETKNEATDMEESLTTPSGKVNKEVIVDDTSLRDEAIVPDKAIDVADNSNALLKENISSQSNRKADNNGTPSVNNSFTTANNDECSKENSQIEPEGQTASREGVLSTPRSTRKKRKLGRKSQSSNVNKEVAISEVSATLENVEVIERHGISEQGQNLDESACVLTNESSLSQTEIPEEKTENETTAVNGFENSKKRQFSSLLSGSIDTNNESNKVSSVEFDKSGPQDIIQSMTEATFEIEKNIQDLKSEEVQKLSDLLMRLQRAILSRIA
Kind of series: EMSA. Conditions: EMSA with oligos heat-denatured and renatured in 50 mM KCl/40% PEG200 (Fig 5: 50 mM Tris-HCl pH 7.5 with KCl, NaCl or none), gel shift buffer 40 mM Hepes-KOH pH 7.6, recombinant protein, residues 1-1400, protein details: N-term His6, C-term FLAG3, label: 32P.

For series [2], the target named is T1, Rif1 full-length (His6-Rif1-FLAG3) (Schizosaccharomyces pombe (fission yeast)). The series can be described thus: pull-down. Conditions: co-pull-down with biotin-T6G24 and Rif1, 1 M NaCl wash; recombinant protein; residues 1-1400; protein details: N-term His6, C-term FLAG3; label: 32P; single-stranded DNA.
[3] abbreviates: 50 mM NaCl, folded or branched DNA.
[4] abbreviates: no salt, folded or branched DNA.

A negative result means that nothing was seen under these conditions. Tags and fusion partners may be left off the protein sequences shown. For part of these data: The comparison behind a weaker result is the experiment's own reference, which may not be listed here. For part of these data: For at least one entry, the source does not settle the construct or the ends of the probe.

As for AGTGGGGG, the binding result in series [1] (KCl, folded or branched DNA) is “binds more weakly”. Same read-out and setting: to GGGTGGGAGGAGGGT [93del_deltaG] belongs “binds more weakly”.

In the case of AGTGGGG, the binding result in series [1] (KCl, folded or branched DNA) was “binds more weakly”.

In the case of “TTTTTTGAGAGAGAGAGAGAGAGAGAGAGA [T6(GA)12]”, the binding result in series [2] is recorded as “no binding”. With “AGGGCTAGGGCTACTAGGGGGG [Htelo4(GGGGGG)_3nt_spacer]”, the binding result in series [1] (setting [3]) and in series [1] (setting [4]) was “binds more weakly” each time. Regarding “TAGGGTTAGGGTTAGGGGGG [Htelo1_no_spacer_2]”, the binding result in series [1] (setting [3]) and in series [1] (setting [4]) was “binds more weakly” throughout.

As to AAGGGTGGGTGTAAGTGTGGGTGGGT [CEB25], in series [1] (KCl, folded or branched DNA), the binding result was “binds more weakly”. Turning to GGGUUGCGGAGGGUGGGC [TERC18], the binding result in series [1] (KCl) is on record as “binds more weakly”. On to TTGGGGGGTGGGTGGGTGGGT [T95_2T_GGG], for which the binding result in series [1] (KCl, weakly bound in Fig S3, folded or branched DNA) is given as “binds more weakly”. With AGGGTAGGGAGGGAGGGTGG [CEB1_TA], the binding result in series [1] (setting [3]) and in series [1] (setting [4]) was “binds more weakly” throughout. For AGGGTTAGGGAGGGAGGGTGG [CEB1_TTA], the binding result in series [1] (setting [3]) and in series [1] (setting [4]) was “binds more weakly” in each case. On to “TTACAGGTTACAGGTTACAGG (double strand) [Taz1BS]”, for which, in series [1] (without Taz1), the binding result was “no binding”. On to GGGGGGGG [G8], for which, in series [1] (bound to a small extent, folded or branched DNA), the binding result is recorded as “binds more weakly”. For the sequence TTGGGTGGGTGGGTGGGT [T95_2T], the binding result in series [1] (KCl, folded or branched DNA) is given as “binds more weakly”.
